Source: the supplement of paper PMC11732987, “Enantioselective OTUD7B fragment discovery through chemoproteomics screening and high-throughput optimisation” (Communications Chemistry, 2025)
The list shows a part of the results. The data scatter; read single values as rough.

Amino acid sequences for entries named in this document (tags omitted). A change or cut given only in a name is not applied to a line headed by its entry. Residues count along the entry.
UniProt Q14678: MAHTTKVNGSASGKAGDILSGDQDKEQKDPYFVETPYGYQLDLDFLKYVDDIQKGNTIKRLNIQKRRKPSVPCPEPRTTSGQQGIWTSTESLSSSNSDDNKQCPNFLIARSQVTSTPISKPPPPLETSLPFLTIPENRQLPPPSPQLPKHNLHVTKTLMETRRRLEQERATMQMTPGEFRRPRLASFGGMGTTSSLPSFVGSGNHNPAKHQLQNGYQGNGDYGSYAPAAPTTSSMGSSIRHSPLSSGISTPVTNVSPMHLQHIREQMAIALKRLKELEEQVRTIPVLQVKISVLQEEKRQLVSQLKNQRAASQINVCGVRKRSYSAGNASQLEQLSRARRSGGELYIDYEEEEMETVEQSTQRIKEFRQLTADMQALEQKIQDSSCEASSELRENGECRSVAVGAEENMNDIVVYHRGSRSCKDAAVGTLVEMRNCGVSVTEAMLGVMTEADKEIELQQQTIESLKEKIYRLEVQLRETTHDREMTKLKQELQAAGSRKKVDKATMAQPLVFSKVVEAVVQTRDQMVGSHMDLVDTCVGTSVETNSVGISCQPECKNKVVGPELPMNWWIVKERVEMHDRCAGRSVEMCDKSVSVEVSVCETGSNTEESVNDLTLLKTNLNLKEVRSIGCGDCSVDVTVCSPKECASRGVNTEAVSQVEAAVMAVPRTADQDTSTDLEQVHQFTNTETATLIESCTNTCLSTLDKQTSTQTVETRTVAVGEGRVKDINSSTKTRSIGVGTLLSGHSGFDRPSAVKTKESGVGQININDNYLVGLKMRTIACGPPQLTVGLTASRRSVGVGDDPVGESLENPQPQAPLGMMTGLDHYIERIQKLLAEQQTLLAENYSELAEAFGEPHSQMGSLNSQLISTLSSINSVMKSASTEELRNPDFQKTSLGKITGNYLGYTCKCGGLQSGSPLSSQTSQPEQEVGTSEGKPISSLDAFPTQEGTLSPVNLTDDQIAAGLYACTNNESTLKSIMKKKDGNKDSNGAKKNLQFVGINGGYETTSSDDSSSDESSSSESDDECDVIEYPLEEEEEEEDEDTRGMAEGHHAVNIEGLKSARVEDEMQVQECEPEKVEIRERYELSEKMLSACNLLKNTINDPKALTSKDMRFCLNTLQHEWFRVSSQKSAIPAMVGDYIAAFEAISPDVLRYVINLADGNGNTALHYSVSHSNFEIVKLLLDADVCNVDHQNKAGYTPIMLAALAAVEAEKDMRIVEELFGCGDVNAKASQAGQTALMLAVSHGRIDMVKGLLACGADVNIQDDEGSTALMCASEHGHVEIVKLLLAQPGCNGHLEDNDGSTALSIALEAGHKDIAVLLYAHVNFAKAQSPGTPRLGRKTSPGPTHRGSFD
UniProt Q14571, whole entry, looked up: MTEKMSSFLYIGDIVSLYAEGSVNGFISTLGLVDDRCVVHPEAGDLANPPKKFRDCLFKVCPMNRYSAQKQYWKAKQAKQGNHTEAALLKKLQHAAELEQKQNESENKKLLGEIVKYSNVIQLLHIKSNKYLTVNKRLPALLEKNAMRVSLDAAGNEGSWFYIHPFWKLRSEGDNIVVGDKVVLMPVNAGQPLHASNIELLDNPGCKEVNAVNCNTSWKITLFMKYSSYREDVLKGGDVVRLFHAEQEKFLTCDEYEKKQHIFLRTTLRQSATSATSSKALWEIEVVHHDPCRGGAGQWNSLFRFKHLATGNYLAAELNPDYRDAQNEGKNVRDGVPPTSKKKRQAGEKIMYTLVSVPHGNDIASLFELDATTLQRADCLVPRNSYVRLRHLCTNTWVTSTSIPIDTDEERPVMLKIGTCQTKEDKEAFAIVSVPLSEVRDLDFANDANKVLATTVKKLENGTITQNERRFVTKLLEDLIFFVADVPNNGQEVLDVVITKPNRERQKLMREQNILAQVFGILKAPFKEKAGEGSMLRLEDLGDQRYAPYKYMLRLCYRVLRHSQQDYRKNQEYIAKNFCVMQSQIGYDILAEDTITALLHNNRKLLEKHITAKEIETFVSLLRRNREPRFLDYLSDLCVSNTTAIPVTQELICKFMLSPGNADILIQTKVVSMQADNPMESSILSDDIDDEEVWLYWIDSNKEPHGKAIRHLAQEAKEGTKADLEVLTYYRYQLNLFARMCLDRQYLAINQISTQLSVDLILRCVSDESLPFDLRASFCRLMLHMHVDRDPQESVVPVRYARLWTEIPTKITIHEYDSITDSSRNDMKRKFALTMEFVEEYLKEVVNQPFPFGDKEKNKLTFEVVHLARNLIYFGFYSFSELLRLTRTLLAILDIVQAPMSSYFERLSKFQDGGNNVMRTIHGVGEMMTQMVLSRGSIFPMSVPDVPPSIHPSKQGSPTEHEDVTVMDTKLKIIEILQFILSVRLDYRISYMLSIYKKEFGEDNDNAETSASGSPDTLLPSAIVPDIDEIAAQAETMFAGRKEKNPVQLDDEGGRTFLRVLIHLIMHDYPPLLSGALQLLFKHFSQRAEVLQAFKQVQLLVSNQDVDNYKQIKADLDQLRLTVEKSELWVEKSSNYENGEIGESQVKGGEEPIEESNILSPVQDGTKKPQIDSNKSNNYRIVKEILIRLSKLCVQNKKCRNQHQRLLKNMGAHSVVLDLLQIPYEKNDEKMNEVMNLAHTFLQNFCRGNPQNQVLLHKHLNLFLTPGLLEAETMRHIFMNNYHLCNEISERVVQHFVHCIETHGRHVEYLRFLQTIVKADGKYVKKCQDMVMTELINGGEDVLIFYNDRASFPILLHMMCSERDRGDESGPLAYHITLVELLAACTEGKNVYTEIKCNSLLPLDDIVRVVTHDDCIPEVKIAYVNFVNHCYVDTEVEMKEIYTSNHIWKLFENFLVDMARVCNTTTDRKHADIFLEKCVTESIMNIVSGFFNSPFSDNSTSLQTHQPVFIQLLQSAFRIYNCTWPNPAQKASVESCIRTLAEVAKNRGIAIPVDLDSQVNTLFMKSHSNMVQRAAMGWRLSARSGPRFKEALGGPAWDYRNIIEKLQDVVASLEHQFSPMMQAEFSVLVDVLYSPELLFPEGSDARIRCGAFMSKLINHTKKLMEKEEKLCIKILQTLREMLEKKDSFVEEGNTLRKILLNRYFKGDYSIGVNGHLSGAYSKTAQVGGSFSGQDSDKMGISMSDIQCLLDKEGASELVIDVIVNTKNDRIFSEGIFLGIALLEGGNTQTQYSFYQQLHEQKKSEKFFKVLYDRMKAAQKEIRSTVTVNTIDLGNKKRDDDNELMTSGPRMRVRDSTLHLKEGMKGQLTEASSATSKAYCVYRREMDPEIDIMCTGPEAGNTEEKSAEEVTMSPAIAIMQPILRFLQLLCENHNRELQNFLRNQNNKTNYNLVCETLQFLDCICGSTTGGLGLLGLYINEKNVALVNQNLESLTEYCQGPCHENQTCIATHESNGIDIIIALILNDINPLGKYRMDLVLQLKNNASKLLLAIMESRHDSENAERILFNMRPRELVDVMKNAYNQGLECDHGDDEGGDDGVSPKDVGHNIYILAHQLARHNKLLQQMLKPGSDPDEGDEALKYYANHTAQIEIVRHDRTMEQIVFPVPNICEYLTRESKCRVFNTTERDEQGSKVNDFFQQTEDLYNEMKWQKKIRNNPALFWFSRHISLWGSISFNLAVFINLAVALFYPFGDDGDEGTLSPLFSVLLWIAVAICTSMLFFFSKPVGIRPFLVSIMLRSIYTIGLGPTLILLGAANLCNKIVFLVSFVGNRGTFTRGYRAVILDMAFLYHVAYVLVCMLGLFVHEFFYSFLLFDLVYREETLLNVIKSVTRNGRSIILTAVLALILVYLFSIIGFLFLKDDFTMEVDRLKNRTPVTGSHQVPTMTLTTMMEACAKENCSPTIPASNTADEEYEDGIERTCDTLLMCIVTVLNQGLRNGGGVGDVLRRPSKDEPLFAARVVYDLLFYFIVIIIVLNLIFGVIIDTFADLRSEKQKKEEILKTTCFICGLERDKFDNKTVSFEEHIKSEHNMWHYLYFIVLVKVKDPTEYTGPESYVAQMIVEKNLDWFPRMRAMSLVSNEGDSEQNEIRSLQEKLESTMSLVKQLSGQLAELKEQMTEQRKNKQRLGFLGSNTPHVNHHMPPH
UniProt P41229: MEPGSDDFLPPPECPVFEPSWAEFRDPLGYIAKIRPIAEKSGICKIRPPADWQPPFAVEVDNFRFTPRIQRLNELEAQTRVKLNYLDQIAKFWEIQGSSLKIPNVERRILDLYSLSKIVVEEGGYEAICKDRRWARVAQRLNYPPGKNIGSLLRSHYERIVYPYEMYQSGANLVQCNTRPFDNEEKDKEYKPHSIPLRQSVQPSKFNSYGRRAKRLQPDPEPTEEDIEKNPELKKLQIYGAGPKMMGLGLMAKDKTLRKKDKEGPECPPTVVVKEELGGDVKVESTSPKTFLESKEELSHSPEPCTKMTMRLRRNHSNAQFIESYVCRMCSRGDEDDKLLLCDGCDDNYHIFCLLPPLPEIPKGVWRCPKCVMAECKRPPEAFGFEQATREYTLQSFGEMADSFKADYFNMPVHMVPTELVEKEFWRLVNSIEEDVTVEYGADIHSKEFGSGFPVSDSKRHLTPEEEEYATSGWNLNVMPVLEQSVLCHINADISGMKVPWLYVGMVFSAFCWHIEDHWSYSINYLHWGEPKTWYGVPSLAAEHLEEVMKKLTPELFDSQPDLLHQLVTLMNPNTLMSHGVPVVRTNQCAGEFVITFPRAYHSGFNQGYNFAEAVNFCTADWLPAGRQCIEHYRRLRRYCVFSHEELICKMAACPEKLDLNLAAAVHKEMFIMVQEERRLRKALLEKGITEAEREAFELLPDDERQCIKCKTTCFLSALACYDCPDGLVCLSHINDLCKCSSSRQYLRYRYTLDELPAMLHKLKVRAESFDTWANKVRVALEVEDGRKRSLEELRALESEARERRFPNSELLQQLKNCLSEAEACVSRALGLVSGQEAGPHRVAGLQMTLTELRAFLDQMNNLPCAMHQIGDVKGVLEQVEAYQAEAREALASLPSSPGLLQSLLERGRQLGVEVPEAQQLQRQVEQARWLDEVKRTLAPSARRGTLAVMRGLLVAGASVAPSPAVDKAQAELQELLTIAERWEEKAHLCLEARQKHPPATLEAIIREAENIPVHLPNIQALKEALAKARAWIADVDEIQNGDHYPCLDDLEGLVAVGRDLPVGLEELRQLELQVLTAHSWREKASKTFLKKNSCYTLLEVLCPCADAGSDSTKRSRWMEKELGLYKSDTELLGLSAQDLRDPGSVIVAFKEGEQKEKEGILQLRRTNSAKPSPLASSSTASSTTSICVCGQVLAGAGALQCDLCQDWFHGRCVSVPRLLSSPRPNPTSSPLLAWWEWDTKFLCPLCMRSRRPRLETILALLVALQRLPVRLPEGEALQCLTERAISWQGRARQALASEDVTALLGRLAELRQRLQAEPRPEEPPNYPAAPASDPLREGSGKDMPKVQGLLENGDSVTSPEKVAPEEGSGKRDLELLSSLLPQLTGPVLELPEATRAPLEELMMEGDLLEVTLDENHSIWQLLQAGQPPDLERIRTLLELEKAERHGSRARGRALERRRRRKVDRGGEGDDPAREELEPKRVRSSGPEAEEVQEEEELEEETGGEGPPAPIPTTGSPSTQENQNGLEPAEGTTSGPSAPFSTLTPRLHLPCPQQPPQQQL
UniProt Q14653: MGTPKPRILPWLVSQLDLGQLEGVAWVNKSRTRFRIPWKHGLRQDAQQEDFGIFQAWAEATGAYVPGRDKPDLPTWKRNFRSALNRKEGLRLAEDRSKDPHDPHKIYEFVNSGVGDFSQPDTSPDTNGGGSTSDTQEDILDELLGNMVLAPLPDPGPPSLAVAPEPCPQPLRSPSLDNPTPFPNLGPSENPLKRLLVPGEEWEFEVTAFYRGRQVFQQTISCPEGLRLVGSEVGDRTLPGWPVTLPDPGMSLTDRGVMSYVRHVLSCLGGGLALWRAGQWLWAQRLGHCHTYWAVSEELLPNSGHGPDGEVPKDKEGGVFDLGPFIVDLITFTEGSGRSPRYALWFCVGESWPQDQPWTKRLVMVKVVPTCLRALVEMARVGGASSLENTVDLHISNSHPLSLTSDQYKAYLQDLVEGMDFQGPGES
UniProt Q99661, 587-622: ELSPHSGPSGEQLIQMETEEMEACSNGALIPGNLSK
UniProt Q9Y6Y0, 266-286: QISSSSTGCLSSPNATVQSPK
UniProt P14316: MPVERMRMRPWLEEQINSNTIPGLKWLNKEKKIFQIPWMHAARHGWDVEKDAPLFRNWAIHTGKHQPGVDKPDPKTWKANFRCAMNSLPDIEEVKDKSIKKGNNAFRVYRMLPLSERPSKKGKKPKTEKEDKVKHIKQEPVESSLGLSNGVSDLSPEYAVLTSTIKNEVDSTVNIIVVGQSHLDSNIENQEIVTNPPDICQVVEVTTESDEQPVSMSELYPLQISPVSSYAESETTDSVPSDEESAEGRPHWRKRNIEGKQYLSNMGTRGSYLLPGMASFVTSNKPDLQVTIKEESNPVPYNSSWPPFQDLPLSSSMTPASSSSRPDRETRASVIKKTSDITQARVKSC

compound: ClCC(=O)N[C@H]1CCCc2ccccc12; assay: log2 mean competition ratio of IA-DTB cysteine labelling (DMSO/compound) (log2 ratio); higher = stronger cysteine engagement by compound; details: 50 µM; treatment time: 4 h; cell line lysate: HEK293T
Procedure: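 IA-DTB competitive cysteine chemoproteomics in HEK293T RIPA lysate. Lysates were treated with compound 29 or 30 at 50 or 200 µM for 4 h, then IA-DTB (500 µM, 1 h), trypsin-digested, NeutrAvidin-enriched and analysed by diaPASEF. Competition ratio = intensity DMSO / intensity compound (n=4 treated, n=64 DMSO); binding: mean log2 CR ≥ 1 and p ≤ 0.05 plus QC filters. Target is the cysteine site.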

Target	log2 mean competition ratio
KANK1 C1072 (UniProt Q14678)	-1.27
ITPR2 C1462 (UniProt Q14571)	-0.113
KIF20A C332 (UniProt O95235)	-0.258
KDM3B C937 (UniProt Q7LBC6)	-0.127
KDM5C C305 (UniProt P41229)	-0.141
KIF20B C480 (UniProt Q96Q89)	-0.191
KDM5C C707 (UniProt P41229)	-0.317
IRF3 C222 (UniProt Q14653)	-0.00278
KDM5C C327 (UniProt P41229)	-0.0733
KIDINS220 C1250 (UniProt Q9ULH0)	-0.379
KIF2C C610 (UniProt Q99661)	0.037
ITPR2 C1522 (UniProt Q14571)	0.0565
KIAA1107 C515	-0.014
JUP C457 (UniProt P14923)	-0.339
KIAA0232 C703	-0.404
KIF23 C759 (UniProt Q02241)	0.108
IVNS1ABP C274 (UniProt Q9Y6Y0)	0.431
KIF1B C600 (UniProt O60333)	0.132
IRF2 C83 (UniProt P14316)	-0.547
KIF16B C863 (UniProt Q96L93)	-0.353

same assay, conditions: 200 µM; treatment time: 4 h; cell line lysate: HEK293T

Target	log2 mean competition ratio
KANK1 C1072 (UniProt Q14678)	-0.233
ITPR2 C1462 (UniProt Q14571)	-0.0662
KIF20A C332 (UniProt O95235)	0.0183
KDM3B C937 (UniProt Q7LBC6)	0.148
KDM5C C305 (UniProt P41229)	-0.137
KIF20B C480 (UniProt Q96Q89)	-0.259
KDM5C C707 (UniProt P41229)	0.109
IRF3 C222 (UniProt Q14653)	-0.107
KDM5C C327 (UniProt P41229)	0.0933
KIDINS220 C1250 (UniProt Q9ULH0)	-0.185
KIF2C C610 (UniProt Q99661)	-0.7
ITPR2 C1522 (UniProt Q14571)	-0.446
KIAA1107 C515	0.103
JUP C457 (UniProt P14923)	0.151
KIAA0232 C703	-0.0707
KIF23 C759 (UniProt Q02241)	0.28
IVNS1ABP C274 (UniProt Q9Y6Y0)	-0.175
KIF1B C600 (UniProt O60333)	-0.0472
IRF2 C83 (UniProt P14316)	0.163
KIF16B C863 (UniProt Q96L93)	0.395
